According to paper PMC3609778, “Truncated and Helix-Constrained Peptides with High Affinity and Specificity for the cFos Coiled-Coil of AP-1” (PLoS ONE, 2013):

Tested on: cJun
Test: CD spectra and thermal denaturation of peptide-cJun mixtures (specificity)
Type: binding
Conditions: for Peptide-cJun Ɵ222/208 (20ºC): CD ratio, mixture with cJun, 20 °C; for Peptide-cJun Fraction helical (ƒH): equimolar mixture with cJun, CD 222 nm, 20°C
Experimental: To establish if the truncated and constrained peptides retained the interaction specificity of the JunWCANDI parent peptide, peptides capable of interacting with cFos were also incubated at equimolar concentrations with cJun and monitored via CD spectra. […] In addition, a dimer exchange experiment was performed for the most helical peptide 24. Spectra for a cJun-peptide solution and a cFos solution should, upon mixing, generate an averaged spectrum if there was no dimer exchange. […] Spectra for both mixtures can be superimposed (Figure S4).
Supplementary file pone.0059415.s002.tiff: Figure S2 Raw thermal melting data for homo and heterodimeric complexes with cJun for constrained peptides 1 , 2 , 8 , 9, 10 , 11, 12, 17, 20, 22, and 24 . […] (TIFF) Click here for additional data file.
Supplementary file pone.0059415.s003.tiff: Figure S3 CD spectra as MRE both in isolation and as a mixture with cJun. From these raw data it is also clear that no interaction is occurring between constrained peptides and cJun. Rather, specta appear as averages of their homodimeric components (i.e. superimpose with the homomeric averages). We observe no heteromeric helical signal (red) that exceeds the average (black dotted line) of cJun (black) and the constrained peptide (blue), that would be anticipated for a non-interacting pair. (TIFF) Click here for additional data file.
Supplementary file pone.0059415.s005.doc: Table S1 Helical Data obtained via Circular Dichroism. Shown are A) homo and B) heteromeric samples. […] A ratio higher than 1 is generally indicated evidence that a coiled coil has formed, while a ratio of less than 0.9 is taken to indicate the presence of isolated helices. Shown in column two are the calculated fractional helicities taken from the Molar Residue Ellipticity at […]. Fraction helicity (ƒH) can be calculated as ƒH = (θ222−θc)/(θ222∞−θc) where θ222∞ = (−44000+250*T)*(1−k/Nr) and θc = 2220–(53*T). In these equations the wavelength dependent constant k = 2.4 (at 222 nm), Nr = the number of residues, and T = 20 degrees Celsius (293 K). The 222/208 ratio is used to provide evidence on whether the helices are monomeric or are adopting a quaternary structure. Measured helicity for the original JunWCANDI peptide and for the template on which the hydrocarbon constraints have been introduced. […] The N- and C-capping motifs have been removed for the constrained since they are considered to be largely redundant upon their introduction. (DOC) Click here for additional data file.

Row | Compound | Peptide-cJun Ɵ222/208 (20ºC) | Peptide-cJun Fraction helical (ƒH)
1 | CC[C@H](C)[C@@H]1NC(=O)[C@H](Cc2c[nH]cn2)NC(=O)[C@@H](NC(=O)[C@H](CCCNC(=N)N)NC(=O)[C@H](CC(C)C)NC(=O)[C@@H]2CC(=O)NCCCC[C@H](NC(=O)[C@H](CCCNC(=N)N)NC(=O)[C@H](CC(C)C)NC(=O)[C@@H]3CC(=O)NCCCC[C@H](NC(=O)[C@H](CCCNC(=N)N)NC(=O)[C@H](CC4CCCCC4)NC(C)=O)C(=O)N[C@@H](CCC(=O)O)C(=O)N[C@@H]([C@@H](C)CC)C(=O)N[C@@H](Cc4ccc(O)cc4)C(=O)N3)C(=O)N[C@@H](CCCCN)C(=O)N[C@@H](C)C(=O)N[C@@H](CC(N)=O)C(=O)N2)CCCCNC(=O)C[C@@H](C(=O)N[C@@H](CC2CCCCC2)C(N)=O)NC(=O)[C@H](C)NC1=O [compound 24, Ac-cyclo-(3,7; 10,14; 17,21)-ChaR[KEIYD]LR[KKAND]LR[KHIAD]Cha-NH2] (Ac-[Cha]RKEIYDLRKKANDLRKHIAD[Cha]-NH2; lactam 3-7, 10-14, 17-21) | 0.81 | 0.30
2 | CC[C@H](C)[C@H](NC(=O)[C@H](Cc1c[nH]cn1)NC(=O)[C@@H]1CC(=O)NCCCC[C@H](NC(=O)[C@H](C)NC(=O)[C@H](CCCCN)NC(=O)[C@H](CO)NC(=O)[C@H](CCCNC(=N)N)NC(=O)[C@H](CC2CCCCC2)NC(=O)[C@@H]2CC(=O)NCCCC[C@H](NC(=O)[C@H](CCCCN)NC(=O)[C@H](CC(C)C)NC(C)=O)C(=O)N[C@@H](CCC(=O)O)C(=O)N[C@@H]([C@@H](C)CC)C(=O)N[C@@H](Cc3ccc(O)cc3)C(=O)N2)C(=O)N[C@@H](CCSC)C(=O)N[C@@H](CC(C)C)C(=O)N[C@@H](CCCNC(=N)N)C(=O)N1)C(=O)N[C@@H](C)C(=O)N[C@@H](CCC(N)=O)C(=O)N[C@@H](CC(C)C)C(N)=O [compound 17] (Ac-LKKEIYD[Cha]RSKAKMLRDHIAQL-NH2; lactam 3-7, 13-17) | 0.73 | 0.26
3 | CC[C@H](C)[C@H](NC(=O)[C@H](Cc1c[nH]cn1)NC(=O)[C@@H]1CC(=O)NCCCC[C@H](NC(=O)[C@H](C)NC(=O)[C@H](CCCCN)NC(=O)[C@H](CO)NC(=O)[C@H](CCCNC(=N)N)NC(=O)[C@H](CC(C)C)NC(=O)[C@@H]2CC(=O)NCCCC[C@H](NC(=O)[C@H](CCCCN)NC(=O)[C@H](CC3CCCCC3)NC(C)=O)C(=O)N[C@@H](CCC(=O)O)C(=O)N[C@@H]([C@@H](C)CC)C(=O)N[C@@H](Cc3ccc(O)cc3)C(=O)N2)C(=O)N[C@@H](CCSC)C(=O)N[C@@H](CC(C)C)C(=O)N[C@@H](CCCNC(=N)N)C(=O)N1)C(=O)N[C@@H](C)C(=O)N[C@@H](CCC(N)=O)C(=O)N[C@@H](CC1CCCCC1)C(N)=O [compound 20] (Ac-[Cha]KKEIYDLRSKAKMLRDHIAQ[Cha]-NH2; lactam 3-7, 13-17) | 0.71 | 0.26

Where a SMILES comes first, the peptide text is derived from it. Bridges are numbered along the chain shown (N, C = ends). [ ]: non-standard residue; d: D form. Cha = N[C@@H](CC1CCCCC1)C(=O)O
